This series addresses YbiB WT (Escherichia coli BW25113) (UniProt P30177). The experiment in a line: EMSA. To be noted: 2 uM YbiB pre-mixed with ObgE, nearly complete inhibition at 1:2 ObgE/YbiB; EMSA: 20 mM HEPES pH 7.5, 150 mM NaCl, 5 mM MgCl2, 2 mM DTT, 5% glycerol, 30 min at 37 C; 6% PAGE in 1x TBE at room temperature; recombinant protein; protein details: N-terminal His6, thrombin site (pET28a); label: 5'-32P; single-stranded DNA. A general note: A gel shift assay detects complexes by their altered migration in electrophoresis.

Amino acid sequences for entries named in this document (tags omitted). A change or cut given only in a name is not applied to a line headed by its entry.
UniProt P30177: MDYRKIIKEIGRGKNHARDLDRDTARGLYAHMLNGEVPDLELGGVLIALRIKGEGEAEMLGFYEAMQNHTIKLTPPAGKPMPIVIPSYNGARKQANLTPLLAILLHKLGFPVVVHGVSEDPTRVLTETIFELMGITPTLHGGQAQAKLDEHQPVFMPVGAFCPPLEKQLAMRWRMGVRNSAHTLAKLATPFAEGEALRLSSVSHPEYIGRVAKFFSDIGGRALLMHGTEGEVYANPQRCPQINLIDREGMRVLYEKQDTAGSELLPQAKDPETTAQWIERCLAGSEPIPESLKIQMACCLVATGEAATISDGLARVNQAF

The exact form of at least one protein or probe is not confirmed. Weaker means in comparison with the reference protein, sequence or condition of that experiment.

Consider “GCTTTTGATGTACCAATGCATCACCATCACCATCAGGAAATGGGTAAGATGCTTGTAG [EMSA_probe (58-nt ssDNA)]”, for which the binding result is “binds more weakly”.

The record behind these values is paper PMC10123104.
